Measurements: article PMC2238814
Results are given in words; binding and its absence hold for the method and conditions named. Binding seen in cells or lysates may run through a third protein. Some binding calls cover weakened binding; strength is not graded here. For part of these data: Sequences can lack the tags named with a protein. Values belong to the molecule of their own block, whether it stands above or below them.

Chains of the proteins cited; added tags and fusions are not shown.
UniProt P40460: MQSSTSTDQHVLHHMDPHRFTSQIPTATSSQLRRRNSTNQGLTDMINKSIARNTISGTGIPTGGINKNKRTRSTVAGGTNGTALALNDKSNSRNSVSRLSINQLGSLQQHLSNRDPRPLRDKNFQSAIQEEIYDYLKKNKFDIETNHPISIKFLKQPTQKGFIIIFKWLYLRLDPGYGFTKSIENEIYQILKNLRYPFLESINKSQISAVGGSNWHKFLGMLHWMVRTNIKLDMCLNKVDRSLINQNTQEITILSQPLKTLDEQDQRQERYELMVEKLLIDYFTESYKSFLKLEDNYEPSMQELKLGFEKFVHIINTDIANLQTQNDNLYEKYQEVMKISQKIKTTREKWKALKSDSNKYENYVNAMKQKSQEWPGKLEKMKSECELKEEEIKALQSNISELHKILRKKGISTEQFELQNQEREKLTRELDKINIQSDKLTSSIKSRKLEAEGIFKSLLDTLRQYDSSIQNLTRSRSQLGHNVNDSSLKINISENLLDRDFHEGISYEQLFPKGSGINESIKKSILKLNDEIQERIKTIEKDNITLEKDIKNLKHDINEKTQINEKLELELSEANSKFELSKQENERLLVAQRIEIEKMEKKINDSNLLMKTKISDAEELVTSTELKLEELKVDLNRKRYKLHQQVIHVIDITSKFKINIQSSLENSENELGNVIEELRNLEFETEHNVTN
UniProt P40014: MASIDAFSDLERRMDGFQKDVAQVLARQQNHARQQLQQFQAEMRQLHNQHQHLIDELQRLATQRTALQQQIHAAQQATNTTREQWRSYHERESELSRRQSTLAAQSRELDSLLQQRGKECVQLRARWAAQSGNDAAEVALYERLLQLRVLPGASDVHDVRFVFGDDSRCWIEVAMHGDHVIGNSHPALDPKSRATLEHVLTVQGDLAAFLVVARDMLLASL
UniProt Q02732: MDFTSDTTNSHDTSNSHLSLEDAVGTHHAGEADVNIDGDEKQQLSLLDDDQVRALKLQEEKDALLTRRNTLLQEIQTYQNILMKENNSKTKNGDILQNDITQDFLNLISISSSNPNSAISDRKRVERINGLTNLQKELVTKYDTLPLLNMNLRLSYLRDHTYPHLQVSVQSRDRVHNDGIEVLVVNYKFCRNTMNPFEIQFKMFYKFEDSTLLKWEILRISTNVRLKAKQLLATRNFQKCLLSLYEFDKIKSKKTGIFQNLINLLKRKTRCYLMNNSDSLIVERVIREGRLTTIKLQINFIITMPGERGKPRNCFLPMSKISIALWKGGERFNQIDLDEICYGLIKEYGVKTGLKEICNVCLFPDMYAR

Experiments:
Assay in all cases: co-IP; anti-myc immunoprecipitation from lysates of log-phase yeast grown at 30°C, wild-type or ybp2Δ strains; Western blot for Ctf19, HA-tagged or myc-tagged proteins
[1] = molecular target: Ndc80-myc (S. cerevisiae) (UniProt P40460)
Mtw1-myc (S. cerevisiae) = molecular target: T1, Mtw1-myc (S. cerevisiae) (UniProt P39731)
T1 sequence: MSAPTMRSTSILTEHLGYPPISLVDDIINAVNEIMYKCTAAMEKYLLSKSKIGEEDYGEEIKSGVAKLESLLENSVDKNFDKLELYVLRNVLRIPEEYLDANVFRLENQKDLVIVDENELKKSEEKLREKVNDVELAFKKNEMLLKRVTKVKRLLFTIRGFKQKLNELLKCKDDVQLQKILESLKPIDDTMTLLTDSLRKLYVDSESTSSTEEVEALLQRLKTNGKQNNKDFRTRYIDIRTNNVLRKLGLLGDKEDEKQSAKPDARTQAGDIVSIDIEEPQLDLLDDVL

[2] = molecular target: Spc25-myc (S. cerevisiae) (UniProt P40014)

binding [1]: binds
binding (Mtw1-myc (S. cerevisiae)): binds
Molecule: Ctf19 (from UniProt Q02732 1-369)

binding [2]: binds
B1: Mtw1-HA (protein, UniProt P39731 1-289)
chain: T1 sequence
